From publication PMC3597711
Results are given in words; binding and its absence hold for the method and conditions named. Sequences can lack the tags named with a protein.

Legend:
[1] = molecular target: RB-NP (human RB1 residues 40-787, RB-N and RB-P domains, MBP tag removed) (human) (UniProt P06400); experiment: SEC-MALS; multi-angle light scattering recorded in flow mode, molecular weight as a function of elution volume; measured mass compared with predicted mass; both purified
[2] = molecular target: MBP-RB-NP (His6-MBP fused to the N-terminus of human RB1 residues 40-787) (human) (UniProt P06400); experiment: as above

binding [1] | binding [2] | Binder
no binding |  | RB-NP (human RB1 residues 40-787, RB-N and RB-P domains, MBP tag removed) (domain or fragment, UniProt P06400 40-787) EDLPLVRLEFEETEEPDFTALCQKLKIPDHVRERAWLTWEKVSSVDGVLGGYIQKKKELWGICIFIAAVDLDEMSFTFTELQKNIEISVHKFFNLLKEIDTSTKVDNAMSRLLKKYDVLFALFSKLERTCELIYLTQPSSSISTEINSALVLKVSWITFLLAKGEVLQMEDDLVISFQLMLCVLDYFIKLSPPMLLKEPYKTAVIPINGSPRTPRRGQNRSARIAKQLENDTRIIEVLCKEHECNIDEVKNVYFKNFIPFMNSLGLVTSNGLPEVENLSKRYEEIYLKNKDLDARLFLDHDKTLQTDSIDSFETQRTPRKSNLDEEVNVIPPHTPVRTVMNTIQQLMMILNSASDQPSENLISYFNNCTVNPKESILKRVKDIGYIFKEKFAKAVGQGCVEIGSQRYKLGVRLYYRVMESMLKSEEERLSIQNFSKLLNDNIFHMSLLACALEVVMATYSRSTSQNLDSGTDLSFPWILNVLNLKAFDFYKVIESFIKAEGNLTREMIKHLERCEHRIMESLAWLSDSPLFDLIKQSKDREGPTDHLESACPLNLPLQNNHTAADMYLSPVRSPKKKGSTTRVNSTANAETQATSAFQTQKPLKSTSLSLFYKKVYRLAYLRLNTLCERLLSEHPELEHIIWTLFQHTLQNEYELMRDRHLDQIMMCSMYGICKVKNIDLKFKIIVTAYKDLPHAVQETFKRVLIKEEEYDSIIVFYNSVFMQRLKTNILQYASTRPPTLSPIPHIPR
 | no binding | MBP-RB-NP (His6-MBP fused to the N-terminus of human RB1 residues 40-787) (domain or fragment, UniProt P06400 40-787) EDLPLVRLEFEETEEPDFTALCQKLKIPDHVRERAWLTWEKVSSVDGVLGGYIQKKKELWGICIFIAAVDLDEMSFTFTELQKNIEISVHKFFNLLKEIDTSTKVDNAMSRLLKKYDVLFALFSKLERTCELIYLTQPSSSISTEINSALVLKVSWITFLLAKGEVLQMEDDLVISFQLMLCVLDYFIKLSPPMLLKEPYKTAVIPINGSPRTPRRGQNRSARIAKQLENDTRIIEVLCKEHECNIDEVKNVYFKNFIPFMNSLGLVTSNGLPEVENLSKRYEEIYLKNKDLDARLFLDHDKTLQTDSIDSFETQRTPRKSNLDEEVNVIPPHTPVRTVMNTIQQLMMILNSASDQPSENLISYFNNCTVNPKESILKRVKDIGYIFKEKFAKAVGQGCVEIGSQRYKLGVRLYYRVMESMLKSEEERLSIQNFSKLLNDNIFHMSLLACALEVVMATYSRSTSQNLDSGTDLSFPWILNVLNLKAFDFYKVIESFIKAEGNLTREMIKHLERCEHRIMESLAWLSDSPLFDLIKQSKDREGPTDHLESACPLNLPLQNNHTAADMYLSPVRSPKKKGSTTRVNSTANAETQATSAFQTQKPLKSTSLSLFYKKVYRLAYLRLNTLCERLLSEHPELEHIIWTLFQHTLQNEYELMRDRHLDQIMMCSMYGICKVKNIDLKFKIIVTAYKDLPHAVQETFKRVLIKEEEYDSIIVFYNSVFMQRLKTNILQYASTRPPTLSPIPHIPR
